Test results: PubChem BioAssay AID286 (DTP/NCI, 2004)
The list shows only some results of the screen, not a fair sample: its compounds were picked by chemical class. Other doses and runs of a compound may be missing. T/C is the treated group as % of the vehicle group. Where survival is the endpoint, this PubChem deposit counts one and a half times the control or more as active, and values a quarter to a half above the control carry no call in these data; other NCI protocols may use other cut-offs. Schedules are NCI's codes, read here as Q, the interval in days (D) or hours (H), X, the number of doses. Some T/C values are marked as having no survivor count here; that says nothing about deaths at the dose.

Test system: BDF1 mice, M5076 sarcoma ip, median survival T/C
Assay: NCI In Vivo Anticancer Drug Screen. Data for tumor model Sarcoma M5076 (intraperitoneal) in B6D2F1 (BDF1) mice
Settings: T/C endpoint: median survival time, schedule: Q04DX005 (ip), vehicle: saline + alcohol, higher T/C = longer survival
Experimental: The antitumor activity of compounds was measured in mice bearing transplantable tumors. Survival or tumor size were measured and the results are expressed as the measurement made in the treated group (T) divided by the measurement made in the vehicle treated control group (C). The tumor model used in this assay is Sarcoma M5076 (intraperitoneal) in B6D2F1 (BDF1) mice

CC(=O)OCC12CCC(C)=CC1OC1C(O)C(OC(C)=O)C2(C)C12CO2 (stereo not drawn)
T/C (dose: 1.5 mg/kg/injection, evaluated on day 90): 150 % of control [survivor count not shown] | T/C (dose: 1.5 mg/kg/injection, evaluated on day 100): 189 % of control [survivor count not shown] | T/C (dose: 3.0 mg/kg/injection, evaluated on day 90): 188 % of control [survivor count not shown] | T/C (dose: 3.0 mg/kg/injection, evaluated on day 100): 216 % of control [survivor count not shown] | T/C (dose: 6.0 mg/kg/injection, evaluated on day 90): 191 % of control [survivor count not shown] | T/C (dose: 6.0 mg/kg/injection, evaluated on day 100): 200 % of control [survivor count not shown] | T/C (dose: 12.0 mg/kg/injection, evaluated on day 90): 191 % of control [survivor count not shown] | T/C (dose: 12.0 mg/kg/injection, evaluated on day 100): 269 % of control [survivor count not shown]
